Laboratory results from publication PMC7582951.
No constants are given. Whether binding was seen depends on the method and setting. A result given as binding can be weak or reduced; the word gives no strength. For part of these data: Sequences can lack the tags named with a protein.

The chains behind the UniProt entries cited, without tags or fusion partners. Where a name states a change or a piece, a line headed by the entry shows the natural chain unless it says otherwise. Residues count along the entry.
UniProt P11021, residues 19-654: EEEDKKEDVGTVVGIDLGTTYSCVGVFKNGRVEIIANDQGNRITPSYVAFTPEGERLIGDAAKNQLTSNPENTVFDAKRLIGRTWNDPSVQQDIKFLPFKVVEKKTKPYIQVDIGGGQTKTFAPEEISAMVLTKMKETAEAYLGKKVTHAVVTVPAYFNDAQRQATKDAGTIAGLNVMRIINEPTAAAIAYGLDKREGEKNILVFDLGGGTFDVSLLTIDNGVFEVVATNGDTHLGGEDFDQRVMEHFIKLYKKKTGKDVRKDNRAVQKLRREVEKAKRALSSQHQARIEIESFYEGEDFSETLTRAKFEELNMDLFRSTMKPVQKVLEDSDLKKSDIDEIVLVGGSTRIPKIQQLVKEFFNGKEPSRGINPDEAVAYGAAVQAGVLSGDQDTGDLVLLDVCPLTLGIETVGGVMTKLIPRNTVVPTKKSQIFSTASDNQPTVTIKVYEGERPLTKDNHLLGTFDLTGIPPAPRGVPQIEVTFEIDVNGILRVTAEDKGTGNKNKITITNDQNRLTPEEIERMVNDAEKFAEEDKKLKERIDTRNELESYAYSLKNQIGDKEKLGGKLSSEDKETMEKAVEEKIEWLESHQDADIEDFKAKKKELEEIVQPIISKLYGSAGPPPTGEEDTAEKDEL
UniProt Q8BLA8: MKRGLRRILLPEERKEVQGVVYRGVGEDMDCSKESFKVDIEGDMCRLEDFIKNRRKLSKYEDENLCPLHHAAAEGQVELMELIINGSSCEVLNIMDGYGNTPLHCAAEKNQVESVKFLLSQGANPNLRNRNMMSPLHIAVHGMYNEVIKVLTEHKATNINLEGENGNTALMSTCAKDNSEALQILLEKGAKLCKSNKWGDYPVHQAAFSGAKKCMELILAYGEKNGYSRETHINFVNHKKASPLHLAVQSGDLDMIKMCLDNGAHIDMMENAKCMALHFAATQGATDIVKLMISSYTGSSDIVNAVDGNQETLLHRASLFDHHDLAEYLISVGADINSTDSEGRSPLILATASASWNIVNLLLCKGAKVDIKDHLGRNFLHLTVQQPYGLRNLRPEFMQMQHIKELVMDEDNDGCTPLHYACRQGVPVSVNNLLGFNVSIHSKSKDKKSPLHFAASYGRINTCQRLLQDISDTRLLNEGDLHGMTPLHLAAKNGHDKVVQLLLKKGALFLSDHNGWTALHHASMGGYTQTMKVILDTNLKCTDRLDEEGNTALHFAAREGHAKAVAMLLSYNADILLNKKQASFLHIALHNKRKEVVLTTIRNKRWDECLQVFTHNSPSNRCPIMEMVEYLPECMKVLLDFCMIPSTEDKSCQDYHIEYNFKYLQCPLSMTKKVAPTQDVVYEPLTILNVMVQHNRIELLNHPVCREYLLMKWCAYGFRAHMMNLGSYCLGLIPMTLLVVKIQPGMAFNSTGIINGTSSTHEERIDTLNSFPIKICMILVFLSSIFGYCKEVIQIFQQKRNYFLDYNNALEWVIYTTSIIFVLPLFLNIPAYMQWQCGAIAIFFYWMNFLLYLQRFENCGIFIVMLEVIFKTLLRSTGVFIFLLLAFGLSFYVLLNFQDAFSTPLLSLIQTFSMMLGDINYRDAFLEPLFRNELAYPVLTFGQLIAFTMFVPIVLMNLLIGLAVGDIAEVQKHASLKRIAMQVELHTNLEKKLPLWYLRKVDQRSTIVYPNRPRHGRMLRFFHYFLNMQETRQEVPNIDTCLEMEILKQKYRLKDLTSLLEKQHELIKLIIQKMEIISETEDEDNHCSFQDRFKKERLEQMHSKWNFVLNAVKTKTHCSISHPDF
UniProt Q8R4D5: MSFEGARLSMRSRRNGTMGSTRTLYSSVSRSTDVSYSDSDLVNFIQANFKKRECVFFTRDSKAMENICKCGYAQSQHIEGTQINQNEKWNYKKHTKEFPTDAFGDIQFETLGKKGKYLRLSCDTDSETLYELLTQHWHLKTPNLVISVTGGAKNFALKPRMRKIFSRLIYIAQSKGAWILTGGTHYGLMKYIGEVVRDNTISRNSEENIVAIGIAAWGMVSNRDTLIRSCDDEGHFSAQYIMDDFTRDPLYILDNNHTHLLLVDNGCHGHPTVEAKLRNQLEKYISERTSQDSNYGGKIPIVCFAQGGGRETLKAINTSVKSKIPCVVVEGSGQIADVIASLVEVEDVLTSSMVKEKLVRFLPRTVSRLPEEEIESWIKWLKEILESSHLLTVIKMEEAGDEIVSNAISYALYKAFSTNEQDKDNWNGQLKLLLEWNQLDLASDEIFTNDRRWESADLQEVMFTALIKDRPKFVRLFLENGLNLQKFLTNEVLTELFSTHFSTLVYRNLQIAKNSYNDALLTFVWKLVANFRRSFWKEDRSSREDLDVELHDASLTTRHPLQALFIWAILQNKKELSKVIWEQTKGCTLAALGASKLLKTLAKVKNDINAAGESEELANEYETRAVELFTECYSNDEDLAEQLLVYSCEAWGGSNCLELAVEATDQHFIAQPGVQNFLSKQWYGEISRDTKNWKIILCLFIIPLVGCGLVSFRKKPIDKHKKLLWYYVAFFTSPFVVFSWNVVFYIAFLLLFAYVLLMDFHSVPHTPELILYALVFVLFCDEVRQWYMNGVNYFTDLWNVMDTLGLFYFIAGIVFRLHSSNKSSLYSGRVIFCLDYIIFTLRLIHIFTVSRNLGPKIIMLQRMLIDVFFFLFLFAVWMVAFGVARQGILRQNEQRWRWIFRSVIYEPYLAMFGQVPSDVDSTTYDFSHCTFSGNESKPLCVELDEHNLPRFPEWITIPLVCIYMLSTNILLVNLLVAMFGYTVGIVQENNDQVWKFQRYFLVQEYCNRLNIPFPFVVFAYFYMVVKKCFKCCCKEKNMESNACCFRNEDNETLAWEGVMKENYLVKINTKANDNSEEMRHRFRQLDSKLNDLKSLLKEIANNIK
UniProt O55242: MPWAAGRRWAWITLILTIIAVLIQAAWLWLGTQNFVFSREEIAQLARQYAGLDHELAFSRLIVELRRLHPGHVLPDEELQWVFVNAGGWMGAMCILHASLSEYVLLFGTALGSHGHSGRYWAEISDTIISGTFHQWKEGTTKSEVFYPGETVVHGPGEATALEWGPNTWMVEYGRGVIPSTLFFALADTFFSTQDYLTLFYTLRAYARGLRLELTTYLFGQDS

Experiments:
[1] = target: binding immunoglobulin protein (BiP) (UniProt P11021); assay: pull-down; NR1 C0-C1-C2, BiP or TRPV1 Ct covalently attached to NHS-activated Sepharose; 100 nM σ1R WT or E102Q; 0, 0.25, 0.83 and 2.5 mM CaCl2; 50 mM Tris-HCl pH 7.4, 0.2% CHAPS, 300 uL, 30 min, RT; σ1R in the pellet by western blot; both purified
[2] = target: C0-C1-C2 region of the glutamate NMDAR NR1 subunit (mouse) (UniProt P35438); assay: as above
[3] = target: C-terminal cytosolic region of TRPA1 (mouse) (UniProt Q8BLA8); assay: pull-down; NR1 C0-C1-C2, MOR1 Ct, HINT1, BiP and Nt and Ct domains of TRP channels covalently attached to NHS-activated Sepharose; 100 nM σ1R WT or E102Q; 2.5 mM CaCl2, 50 mM Tris-HCl pH 7.4, 0.2% CHAPS, 300 uL, 30 min, RT; western blot; both purified
[4] = target: T1, histidine triad nucleotide-binding protein 1 (HINT1) (mouse) (UniProt P70349); assay: as above
T1 sequence: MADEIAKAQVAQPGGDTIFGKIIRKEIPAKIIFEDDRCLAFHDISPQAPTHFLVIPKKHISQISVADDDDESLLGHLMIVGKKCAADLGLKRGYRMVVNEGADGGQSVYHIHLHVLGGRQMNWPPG

[5] = target: binding immunoglobulin protein (BiP) (UniProt P11021); assay: as above
[6] = target: N-terminal cytosolic region of TRPA1 (mouse) (UniProt Q8BLA8); assay: as above
[7] = target: N-terminal cytosolic region of TRPM8 (mouse) (UniProt Q8R4D5); assay: as above
[8] = target: C0-C1-C2 region of the glutamate NMDAR NR1 subunit (mouse) (UniProt P35438); assay: as above
[9] = target: C-terminal region of the mu-opioid receptor MOR1 (mouse) (UniProt P42866); assay: as above
[10] = target: binding immunoglobulin protein (BiP) (UniProt P11021); assay: pull-down; preformed complexes of σ1R WT or E102Q (100 nM) with Sepharose-attached NR1 C0-C1-C2 or BiP, washed, then 30 min at RT with increasing concentrations of σ1R ligands (progesterone, S1RA, PPCC, pregnenolone sulfate); 50 mM Tris-HCl, 0.2% CHAPS, 2.5 mM CaCl2; σ1R left on the beads by immunoblot; both purified
[11] = target: C0-C1-C2 region of the glutamate NMDAR NR1 subunit (mouse) (UniProt P35438); assay: as above
[12] = target: C0-C1-C2 region of the glutamate NMDAR NR1 subunit (mouse) (UniProt P35438); assay: pull-down; as a1, at 'low calcium levels' (which of 0, 0.25 and 0.83 mM CaCl2 is not said); NR1 C0-C1-C2 on NHS-activated Sepharose, 100 nM σ1R; both purified

sigma receptor type 1 (σ1R) E102Q mutant (from UniProt O55242)
binding [1]: binds weakly | binding [2]: binds | binding [3]: binds | binding [4]: binds | binding [5]: binds weakly | binding [6]: binds | binding [7]: binds | binding [8]: binds | binding [9]: binds | binding [10]: binds | binding [11]: binds | binding [12]: binds
